Molecules are shown by their SMILES.

Our source for the efflux ratio and Papp values is article PMC7508583, “Discovery and Preclinical Development of Antigiardiasis Fumagillol Derivatives” (Antimicrobial Agents and Chemotherapy, 2020).

This series in a line: in vitro. As to conditions: human. The text has this: Next, we tested the permeation of the compounds across polarized Caco-2 cell monolayers, a method that is widely used as an in vitro model of the human small intestinal mucosa to predict the absorption of orally administered drugs ([63], [64]). With noninvasive intestinal infections, there is no need to establish a high plasma concentration. Since a high rate of uptake through the host gut lining could increase compound toxicity, we sought to reduce gut absorption. […] Both apical-to-basal and basal-to-apical permeation values were measured to obtain information about efflux. […] The efflux machinery is currently unknown.
Passage 36 Caco-2 cells were used. […]
For sample processing, a single-point calibration curve in HBSS buffer with 2% BSA was used. […] One hundred microliters of the supernatant was diluted with 200 μl of water and analyzed by LC-MS/MS (with a Shimadzu ultrafast liquid chromatograph and an API 4000 LC-MS/MS system).
The apparent permeation coefficients (Papp) were calculated as Papp = (dQ/dT) × (1/C0) × (1/A), where dQ is the amount permeated to the receiver compartment of the 96-well plate, dT is the time of compound incubation, C0 is the initial compound concentration in the donor compartment of the well, and A is the surface area of the monolayer.

In general, efflux ratio refers to a quotient of directional permeabilities that is used to spot active efflux. A word on the Papp: it is the rate of passage across a membrane or cell layer, normalised by area and donor concentration. Turning to `CC(C)NCC(O)COc1ccc(CC(N)=O)cc1` (centres unmarked) [Atenolol], for the setting “Caco-2, pH 7.4”, the efflux ratio at 120 min, 10 µM came to 0.45. This molecule also gave a Papp at 120 min, 10 µM (Caco-2, pH 7.4, Mean ± SE Papp, apical to basal, Caco-2, 10 μM, 120 min) of 0.32 ×10⁻⁶ cm/s.
